In patent US20250073244A1, “CRYSTALLINE FORMS OF PENTAAZA MACROCYCLIC RING COMPLEX” (Galera Labs, LLC, priority 2023, published 2025):

Assays:
[1] = Crystallization at room temperature by slow evaporation; set-up: key to DSC/TGA if XRPD changes: −: No change detected.; +: Change detected.; //: Not carried out
Procedure: Combined with approximate solubility experiment, solubility samples were filtered by 0.45 μm nylon filter. Obtained solutions were slow evaporated at ambient condition. Solid residues were examined for their polymorphic form (Table 34).
Scale up: About 200 mg of drug substance will be dissolved in EtOAc. Obtained solutions shall be exposed to ambient condition (protected by N2) to allow slow evaporation of solvents (Table 35).

[2] = Scale up experiment of Pattern A and Pattern D
Procedure: About 6 g API were used for Pattern A and Pattern D scale up.
Obtained suspension was filtered. The solid part (wet cake) was investigated by XRPD.
About 3 g drug substance were equilibrated in 8 mL of solvent (Water: Acetone, 10:90, v:v) at 25° C. for 1 week with a stirring plate. Obtained suspension was filtered. The solid part (wet cake) was investigated by XRPD.

[3] = Equilibration with solvents at 25° C.; set-up: key to DSC/TGA if XRPD changes: −: No change detected.; +: Change detected.; //: Not carried out
Procedure: About 50 mg of drug substance was equilibrated in suitable amount of solvent at 25° C. for 2 weeks with a stirring plate (Table 30). Obtained suspension was filtered. The solid part (wet cake) was investigated by XRPD. When differences were observed, additional investigations were performed (e.g. DSC, TGA. FT-IR, PLM/SEM, etc.).
[…] The solid part (wet cake) was investigated by XRPD. If differences are observed, additional investigation will be performed (e.g. DSC, TGA, HPLC, etc.)

[4] = Crystallization from hot saturated solutions by fast cooling; set-up: key to DSC/TGA if XRPD changes: −: No change detected.; +: Change detected.; //: Not carried out; settings: fast cooling from 50° C. (ice bath)
Procedure: (§1) Approximate 100 mg of drug substance was dissolved in the minimal amount of selected solvents at 50° C. Obtained solutions were put into an ice bath. Precipitates were collected by filtration. The solid part (wet cake) was investigated by XRPD. When differences were observed, additional investigations were performed (e.g. DSC, TGA. FT-IR, PLM/SEM, etc.). When no precipitation was obtained, the solutions were put in −20° C. freezer for crystallization.

[5] = Precipitation by addition of anti-solvent; set-up: key: −: No change detected.; +: Change detected.; //: Not carried out; settings: anti-solvent Heptane
Procedure: About 50 mg of drug substance was dissolved in a good solvent. Anti-solvent was added into the obtained solutions slowly. Precipitates were collected by filtration. The solid part (wet cake) was investigated by XRPD. When differences were observed, additional investigations were performed (e.g. DSC, TGA. FT-IR, PLM/SEM, etc.).
Scale up: About 200 mg of drug substance was dissolved in EtOAc. Heptane was added to the obtained solutions. The solid part (wet cake) was investigated by XRPD. When differences were observed, additional investigations were performed (e.g. DSC, TGA. FT-IR, PLM/SEM, etc.)

[6] = Crystallization from hot saturated solutions by slow cooling; settings: slow cooling 50° C. to 5° C. at 0.1° C./min
Procedure: as §1, with “cooled to 5° C. at 0.1° C./min.” for “put into an ice bath.”, “etc.).” for “etc.). When no precipitation was obtained, the solutions were put in −20° C. freezer for crystallization.”
Scale up: About 200 mg of drug substance will be dissolved in MEK. Obtained solutions will be applied with cooling rate of 0.1° C./min for slow cooling.

[7] = Generation of GC4711 Forms (solvent experiments other than diethyl ether trituration, form by XRPD)
[8] = slow evaporation at ambient condition, DCM
[9] = slow evaporation at ambient condition, EtOAc
[10] = slow evaporation at ambient condition, IPAC
[11] = slow evaporation at ambient condition, Toluene
[12] = slow evaporation, protect with N2, Acetone
[13] = slow evaporation, protect with N2, MTBE
[14] = slow evaporation, protect with N2, THF
[15] = 5 days, protected by N2, Heptane

## CCC(=O)[O][Mn][O]C(=O)CC.c1cc2nc(c1)CN[C@H]1CCCC[C@@H]1NCCN[C@H]1CCCC[C@@H]1NC2 [API]
[1]; [8]
  DSC/TGA if XRPD changes: −
  XRPD: Pattern A
[1]; [9]
  DSC/TGA if XRPD changes: −
  XRPD: Pattern A
[1]; [10]
  DSC/TGA if XRPD changes: −
  XRPD: Pattern A
[1]; [11]
  DSC/TGA if XRPD changes: −
  XRPD: Pattern A
[1]; slow evaporation at ambient condition, Water
  XRPD: Clear
[1]; [12]
  DSC/TGA if XRPD changes: −
  XRPD: Pattern A
[1]; slow evaporation, protect with N2, DCM
  XRPD: Pattern B
[1]; slow evaporation, protect with N2, EtOAc
  XRPD: Pattern B
[1]; slow evaporation, protect with N2, Ethanol
  XRPD: Pattern C^LC
[1]; slow evaporation, protect with N2, IPA
  XRPD: Pattern C^LC
[1]; slow evaporation, protect with N2, IPAC
  XRPD: Pattern B
[1]; slow evaporation, protect with N2, MEK
  XRPD: Pattern B
[1]; [13]
  DSC/TGA if XRPD changes: −
  XRPD: Pattern A
[1]; [14]
  DSC/TGA if XRPD changes: −
  XRPD: Pattern A
[2]; Anti-solvent, EtOAc-Heptane
  XRPD: Pattern A
[2]; Equilibration, Water:Acetone(1:99, v:v), protected by N2, 10 days
  XRPD: Pattern A
[2]; Equilibration, Water:Acetone(10:90, v:v), protected by N2, 10 days
  XRPD: Pattern D
[2]; Slow cooling, MEK
  XRPD: Pattern B
[2]; Slow evaporation, EtOAc
  XRPD: Gel
[3]; 2 weeks, Heptane
  DSC/TGA if XRPD changes: −
[3]; 2 weeks, Heptane/EtOH, 80/20
  XRPD: Clear
[3]; 2 weeks, Heptane/IPA, 80/20
  XRPD: Clear
[3]; 2 weeks, MTBE/EIOH, 80/20
  XRPD: Clear
[3]; 2 weeks, MTBE/IPA, 80/20
  XRPD: Clear
[3]; 2 weeks, Toluene
  XRPD: Clear
[3]; [15]
  DSC/TGA if XRPD changes: −
  XRPD: Pattern A
[4]; Acetone
  XRPD: Clear
[4]; EtOAc
  DSC/TGA if XRPD changes: −
  XRPD: Pattern A
[4]; IPA
  XRPD: Clear
[4]; IPAC
  DSC/TGA if XRPD changes: −
  XRPD: Pattern A
[4]; MEK
  DSC/TGA if XRPD changes: −
  XRPD: Pattern A
[4]; Water
  XRPD: Clear
[5]; solvent Acetone
  DSC/TGA if XRPD changes: −
[5]; solvent EtOAc
  DSC/TGA if XRPD changes: −
[5]; solvent IPA
  DSC/TGA if XRPD changes: −
[5]; solvent MEK
  DSC/TGA if XRPD changes: −
[5]; solvent THF
  DSC/TGA if XRPD changes: −
[6]; Acetone
  XRPD: Clear
[6]; EtOAc
  XRPD: Pattern B
[6]; IPA
  XRPD: Clear
[6]; IPAC
  XRPD: Clear
[6]; MEK
  XRPD: Pattern B
[6]; Water
  XRPD: Clear

## CCC(=O)[O][Mn][O]C(=O)CC.c1cc2nc(c1)CN[C@H]1CCCC[C@@H]1NCCN[C@H]1CCCC[C@@H]1NC2 [Sample 8429-39-02]
[7]; acetone, 51 mg/0.2 mL, ambient 5 min., evaporated under N2 while vial warmed
  Result (form): E + A

## CCC(=O)[O][Mn][O]C(=O)CC.c1cc2nc(c1)CN[C@H]1CCCC[C@@H]1NCCN[C@H]1CCCC[C@@H]1NC2 [Sample 8429-79-02]
[7]; EtOAc/wet, 8429-79-01 filtrate, fast evaporation
  Result (form): A + E
